Experimental data taken from patent US20030130249A1, “Therapeutic use of estrogen receptor (ER)beta-selective agonists for triggering somatotropic, organotropic and anticatabolic effects (somatotropic therapy)” (Schering AG, priority 2001, published 2003).
At least one compound was matched to its structure with a doubt left.

Columns and labels:
Type in all cases: in vivo, rat
[1] = test system: uterus of adult rats that have undergone ovariectomies; experiment: Uterotropic action in adult ovariectomized rats (FIG. 1); details: subcutaneous, compared with ERβ-agon
Experimental: The substances that are to be used according to the invention have very little action in terms of “standard estrogens.” Corresponding estrogenic properties can be examined in the rats that have undergone ovariectomy. In the case of parenteral administration, 17β-estradiol even at a dose of 0.1 μg results in an increase in uterus weight. […] These substances have a correspondingly small action on the parameters of hepatic estrogeneity, for example the increase of the angiotensinogen in the blood. To examine the action of the ERβ-selective agonists in the context according to the invention, their estrogenic action on the genital tract, liver functions, somatotropic factors and on the secretion of gonadotropins was examined in comparison to estradiol in adult rats that have undergone ovariectomies. Determination of the uterotropic action of an ERα- or ERβ-selective agonist (agon) in comparison to estradnol (E2) Study of adult rats that have undergone ovariectomies 14 days after the ovariectomies, treatment day 1-day 3, autopsy day 4, subcutaneous administration in 0.2 ml of vehicle.

[2] = test system: gonads of male and female, sexually immature rats; experiment: Effects on gonads and prostate of sexually immature rats (FIG. 3); details: 7 days subcutaneous
Experimental: ERβ-selective properties can be studied in the case of female and male rats that are not sexually mature. […] In the case of a parenteral dose of 1 μg/animal/day, estradiol results in a complete inhibition of testicular growth. […] The action on the somatotropic functions, gonad functions and the genital tract was studied in infant, gonad-intact, male and female rats. Effects of ERβ-agon or ERβ-selective agonists (agon) (E2) on gonads of male and female, sexually immature rats in comparison to estradiol. Treatment of the young animals after weaning over 7 days (day 1-day 7, autopsy day 8, subcutaneous injection).

[3] = test system: IGF-I in the plasma from sexually immature rats with intact ovaries; experiment: IGF-I in the plasma of sexually immature rats (FIG. 4); details: 7 days subcutaneous, two tests with different dose ranges
Excerpt: (§1) Effects of ERα- or ERβ-selective agonists (agon) on IGF-I in the plasma from sexually immature rats with intact ovaries in comparison to estradiol (E2). Treatment of the young animals after weaning over 7 days (day 1-day 7, autopsy day 8; subcutaneous injection) in two tests with different dose ranges.

[4] = test system: cholesterol fractions in the plasma from sexually immature rats with intact ovaries; experiment: Cholesterol fractions in the plasma of sexually immature rats (FIG. 5); details: 7 days subcutaneous
Excerpt: as §1, with “the cholesterol fractions” for “IGF-I”, “8,” for “8;”

[5] = test system: adrenal glands and thymus of sexually immature rats with intact ovaries; experiment: Organ weights of adrenal glands and thymus of sexually immature rats (FIG. 6); details: 7 days subcutaneous
Excerpt: Effects of ERα- or ERβ-selective agonists (agon) on the development of the organ weights of the adrenal glands and the thymus of sexually immature rats with intact ovaries in comparison to estradiol (E2). Treatment of young animals after weaning over 7 days (day 1-day, 7, autopsy day 8, subcutaneous injection).

[6] = test system: body growth of sexually immature rats whose ovaries are intact; experiment: Body growth of sexually immature rats (FIG. 7); details: immature rats with intact ovaries, 7 days subcutaneous
Excerpt: Effects of ERα- or ERβ-selective agonists (agon) on the body growth of sexually immature rats whose ovaries are intact in comparison to estradiol (E2). Treatment of the young animals after weaning over 7 days (day 1-day 7, autopsy day 8, subcutaneous injection) in two tests with different dose ranges.

C[C@]12CC[C@@H]3c4ccc(O)cc4CC[C@H]3[C@@H]1CC[C@@H]2O [E2, estradiol]
induction of uterus growth [1]: induce uterus growth in the case of much lower dosage than the ERβ-agon
growth of the prostate [2]: inhibition of the growth of the prostate
testicular growth ([2]; autopsy day 8): inhibits the growth of the testes in a dose-dependent manner
testicular growth ([2]; autopsy day 8, listed as Estradiol): does not have corresponding stimulating actions on testicular functions in any dose range
IGF-I in the plasma [3]: No comparable effects
HDL-cholesterol fraction in the plasma at high doses [4]: drop the HDL-cholesterol fraction
total cholesterol in the plasma at high doses [4]: drop the HDL-cholesterol fraction and the total cholesterol
adrenal gland weight [5]: less pronounced positive effects
thymus weight [5]: less pronounced positive effects
thymus weight at higher dosages [5]: reduction of the thymus weight
thymus weight at higher dosages ([5]; listed as estradiol): an inhibiting effect on the thymus
body growth (weight increase) at higher dosages [6]: considerable reduction of the weight increase
body growth (weight increase) at higher dosages ([6]; listed as estradiol): inhibit the growth
body growth ([6]; two tests with different dose ranges): positive effect on the growth only at very low dosages
